# Article PMC8231892
# By UniProt entry, the sequences of proteins in these tests, tags left out. Residues count along the entry.
# UniProt P48995: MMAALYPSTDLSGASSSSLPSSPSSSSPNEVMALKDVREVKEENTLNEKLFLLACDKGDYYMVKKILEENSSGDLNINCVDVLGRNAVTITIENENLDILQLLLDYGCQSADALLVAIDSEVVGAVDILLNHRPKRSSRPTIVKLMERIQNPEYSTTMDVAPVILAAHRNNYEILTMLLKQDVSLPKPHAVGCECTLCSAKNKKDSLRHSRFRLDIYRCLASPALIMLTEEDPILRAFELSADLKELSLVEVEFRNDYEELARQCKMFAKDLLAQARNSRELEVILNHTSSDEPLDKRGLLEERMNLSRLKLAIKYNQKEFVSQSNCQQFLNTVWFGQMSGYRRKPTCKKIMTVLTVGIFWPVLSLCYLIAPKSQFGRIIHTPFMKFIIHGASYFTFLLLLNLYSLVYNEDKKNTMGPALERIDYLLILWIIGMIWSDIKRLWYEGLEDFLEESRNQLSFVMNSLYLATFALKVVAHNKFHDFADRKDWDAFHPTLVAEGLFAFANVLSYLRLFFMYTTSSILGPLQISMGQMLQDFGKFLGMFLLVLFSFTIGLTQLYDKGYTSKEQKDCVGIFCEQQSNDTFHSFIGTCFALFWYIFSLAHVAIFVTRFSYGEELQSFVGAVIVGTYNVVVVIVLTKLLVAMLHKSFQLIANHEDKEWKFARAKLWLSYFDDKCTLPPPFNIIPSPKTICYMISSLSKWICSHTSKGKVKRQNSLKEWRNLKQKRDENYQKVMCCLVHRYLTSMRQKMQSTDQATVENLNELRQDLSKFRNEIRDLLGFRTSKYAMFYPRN
# UniProt Q13586, residues 23-685: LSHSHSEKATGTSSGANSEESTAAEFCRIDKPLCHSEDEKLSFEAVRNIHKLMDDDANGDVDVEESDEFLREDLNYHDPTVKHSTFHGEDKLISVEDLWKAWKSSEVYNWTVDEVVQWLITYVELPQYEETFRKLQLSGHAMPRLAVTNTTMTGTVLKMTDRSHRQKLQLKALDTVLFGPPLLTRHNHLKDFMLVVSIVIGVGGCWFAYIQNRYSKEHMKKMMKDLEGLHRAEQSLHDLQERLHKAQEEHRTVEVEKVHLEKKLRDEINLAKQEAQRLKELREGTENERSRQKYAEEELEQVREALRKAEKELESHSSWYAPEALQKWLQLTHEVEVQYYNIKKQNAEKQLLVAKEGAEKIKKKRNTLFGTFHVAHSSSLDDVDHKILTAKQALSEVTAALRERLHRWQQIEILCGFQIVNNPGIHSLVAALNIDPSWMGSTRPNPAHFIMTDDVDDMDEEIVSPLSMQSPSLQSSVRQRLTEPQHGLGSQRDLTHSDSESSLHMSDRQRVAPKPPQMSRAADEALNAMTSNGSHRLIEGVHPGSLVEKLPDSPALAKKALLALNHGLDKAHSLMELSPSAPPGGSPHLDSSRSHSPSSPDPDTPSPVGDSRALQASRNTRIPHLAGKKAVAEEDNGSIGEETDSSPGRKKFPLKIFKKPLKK
# No constants are given. Whether binding was seen depends on the method and setting. In cells and extracts the contact can be indirect. Some entries that bind do so weakly or less than the wild type.
# Target: TRPC1 (human (endogenous in U266 and MM.1s)) (UniProt P48995)
# Assay: co-IP; endogenous proteins; U266 and MM.1s cells treated with MTI-101 (20 µM and 25 µM) for 10 min in Live Cell Imaging Solution, lysed with 1% Triton X-100 in PBS; 1 mg protein incubated with TRPC1 antibody (or host species IgG) overnight at 4 °C, protein A/G plus agarose, washed 3 times in lysis buffer, Western blot
substance,measurement,value
STIM1 (from UniProt Q13586 23-685),binding,binds
